Source: PubChem BioAssay AID1487 (National Center for Advancing Translational Sciences (NCATS), 2009)
Some of the results follow. Shown are side measurements of this screen, not its main read-out; they come without a call. Most of these compounds were active or inconclusive in the main read-out, so they are no random draw. Potencies come from curve fits of mixed quality, noted in brackets.

Test: qHTS Assay for Modulators of Lamin A Splicing
Details: HeLa LMNA splicing GFP/RFP minigene ratio, 48 h
Outline: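 S3 HeLa cells stably expressing lamin A-EGFP splicing minigene plus DsRed2, 600 cells/well, 48 h compound exposure at 37C. Laser-scanning cytometry; analysed as GFP (500-530 nm)/RFP (575-640 nm) total intensity ratio; 0.5% DMSO vehicle.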

[1] = measured here: RFP viability control channel
[2] = measured here: GFP splicing reporter channel

| SMILES | AC50 [1] | AC50 [2] |
| --- | --- | --- |
| Cc1c(C(=O)NC2CCCc3ccccc32)oc2ccccc12 (stereo unspecified) | 12.6 µM [rising, single point] | – |
| CC(C)(C)OC(=O)N1CCC[C@H]1c1nnc(SCc2c(F)cccc2Cl)o1 | 11.2 µM [rising, single point] | 12.6 µM [rising, single point] |
| Cc1ccc(NS(=O)(=O)c2cc(NC(=O)c3cc4c(s3)CCCC4)ccc2C)c(C)c1 | 22.4 µM [rising, partial curve, poor fit] | – |
| O=C(CS(=O)c1ccc(C(F)(F)F)cc1[N+](=O)[O-])Oc1ccc(Cl)cc1 (stereo unspecified) | 35.5 µM [falling, single point] | 35.5 µM [falling, single point] |
| CC1Cc2ccccc2N1C(=O)CSc1nc2c(c(=O)n(C)c(=O)n2C)n1Cc1ccccc1 (stereo unspecified) | 20 µM [rising, single point] | – |
| O=C(NCCS(=O)(=O)N1CCN(c2ccc(F)cc2)CC1)c1cccc(C(F)(F)F)c1 | – | 0.891 µM [falling, full curve, poor fit] |
| Cc1cc(C)n(/N=C/c2cc(Cl)cc(Cl)c2O)c(=O)c1 | – | 22.4 µM [falling, single point] |
| Cc1cc(C)n2nc(/C(C#N)=C/c3ccccn3)c(C#N)c2n1 | – | 25.1 µM [falling, single point] |
| O=C(NCC1CCCO1)c1sc(=S)n2c1[nH]c(=O)c1ccc(C(=O)N3CCCCC3)cc12 (stereo unspecified) | 1.58 µM [rising, full curve] | 6.31 µM [rising, partial curve, poor fit] |
| O=C(c1ccccc1)N1CCN(C(=S)NCc2ccc3c(c2)OCO3)CC1 | 0.00794 µM [rising, full curve, poor fit] | – |
| COC(=O)c1c(-c2ccc(Br)cc2)csc1NC(=O)Cc1ccc(OC)c(OC)c1 | 11.2 µM [rising, partial curve] | 14.1 µM [rising, partial curve] |
| Cc1ccc(N2C(=O)c3cccc4c(Oc5ccccc5[N+](=O)[O-])ccc(c34)C2=O)c(C)c1 | 7.08 µM [rising, full curve] | 3.55 µM [rising, full curve] |
| c1ccc(CN(CC2=NCCN2)c2ccccc2)cc1 | 0.00251 µM [falling, full curve, poor fit] | 0.126 µM [falling, full curve, poor fit] |
| O=C(NCc1cccnc1)c1ccc(COc2ccccc2Br)o1 | 35.5 µM [rising, single point] | – |
| COc1ccc(-n2c(SCC(=O)Nc3cccc(C)c3C)nc3c([nH]c4ccccc43)c2=O)cc1 | 7.94 µM [falling, partial curve] | – |
| Cc1ccc(C(=O)Nc2cccc(Oc3ccccc3)c2)o1 | 35.5 µM [rising, single point] | – |
| C=CCN(C(=O)c1cccc(S(=O)(=O)N2CCN(C)CC2)c1)c1nc(-c2ccccc2)cs1 | 12.6 µM [rising, partial curve] | – |
| O=S(=O)(Nc1cc(F)ccc1F)c1ccc2[nH]c3c(c2c1)CCCCC3 | 25.1 µM [falling, single point] | 28.2 µM [falling, single point] |
| FC(F)(F)c1ccc2c(c1)[nH]c(=S)n2C1CC1 | – | 0.01 µM [rising, full curve, poor fit] |
| O=C(Nc1cccnc1)c1cc(-c2ccc(F)cc2)on1 | – | 2.24 µM [rising, partial curve] |
| Fc1ccc(Nc2nc(SCc3ccccc3F)nc3ccccc23)cc1 | 12.6 µM [falling, partial curve, poor fit] | 11.2 µM [falling, partial curve] |
| C/C(Cl)=C/Cn1c(=O)c2c(nc(Br)n2Cc2ccccc2)n(C)c1=O | 0.0316 µM [rising, full curve, poor fit] | – |
| Cc1nc2cc(C(=O)NC3CCCCCC3)ccc2n1-c1ccc(Br)cc1 | – | 0.0158 µM [falling, full curve, poor fit] |
| COc1ccc(C(=O)C2CCCN(C(=O)CCC3=NNC(=O)CC3)C2)c(C)c1 (stereo unspecified) | 0.00316 µM [falling, full curve, poor fit] | – |
| Cc1ccc([N+](=O)[O-])c(C)[n+]1C | 0.158 µM [rising, partial curve, poor fit] | – |
| Cc1ccc(C)c(N2CCN(C(=O)CSc3ccsc3[N+](=O)[O-])CC2)c1 | 11.2 µM [rising, partial curve, poor fit] | – |
| C=C1CCC(O)C/C1=C/C=C1\CCC[C@]2(C)[C@@H]([C@H](C)/C=C/[C@H](C)C(C)C)CC[C@@H]12 (stereo partly specified) | 0.0316 µM [rising, full curve, poor fit] | 12.6 µM [rising, partial curve, poor fit] |

Quoted from the listing (two entries):

| SMILES | AC50 [1] | AC50 [2] |
| --- | --- | --- |
| Fc1ccc(Nc2nc(SCc3ccccc3F)nc3ccccc23)cc1 | 12.6 µM [falling, partial curve, poor fit] | 11.2 µM [falling, partial curve] |
| C/C(Cl)=C/Cn1c(=O)c2c(nc(Br)n2Cc2ccccc2)n(C)c1=O | 0.0316 µM [rising, full curve, poor fit] | – |

(more compounds)

| SMILES | AC50 [1] | AC50 [2] |
| --- | --- | --- |
| CCN(C(=O)c1ccc(C(C)(C)C)cc1)c1nnc(Cn2nnc3ccccc32)s1 | 0.708 µM [rising, full curve] | 0.158 µM [rising, full curve] |
| C=CCOc1ccc(C2C(C#N)=C(N)N(Nc3ccccc3)C3=C2C(=O)CC(C)(C)C3)cc1OC (stereo unspecified) | 28.2 µM [falling, single point] | 35.5 µM [falling, single point] |
| CSc1ccccc1C(=O)NCc1ccccc1C | 0.0891 µM [falling, full curve, poor fit] | 0.126 µM [falling, full curve, poor fit] |
| COc1ccc(C(=O)/C(=C\c2sccc2C)c2nc3ccccc3o2)cc1 | 35.5 µM [rising, single point] | 35.5 µM [rising, single point] |
| CCOc1cc(CNc2ccc(N3CCCC3)cc2)cc(Cl)c1OC | 31.6 µM [rising, single point] | 31.6 µM [rising, single point] |
| COc1ccc(NC(=O)Nc2nccs2)cc1 | 2.82 µM [rising, partial curve] | – |
| CS(=O)(=O)c1ccc(C(=O)OCC(=O)NC23CC4CC(CC(C4)C2)C3)cc1[N+](=O)[O-] | 31.6 µM [rising, single point] | – |
| Cc1ccc2cc(C3C(C#N)=C(N)Oc4c3ccc3cccnc43)c(=O)[nH]c2c1 (stereo unspecified) | 28.2 µM [falling, single point] | 17.8 µM [falling, single point] |
| O=c1oc2ccc3ccccc3c2cc1-c1nnc(-c2ccccc2)o1 | – | 25.1 µM [rising, single point] |
| COc1ccc(OC)c(C2C3CN(C(C)C)CC=C3C(C#N)=C(N)C2(C#N)C#N)c1 (stereo unspecified) | 35.5 µM [rising, single point] | – |
| Cc1nc(SCc2ccc(Br)cc2)[nH]c(=O)c1C | 12.6 µM [rising, partial curve] | – |
| O=c1[nH]c(CCl)nc2cc(-c3ccc(Cl)cc3)sc12 | 20 µM [rising, single point] | – |
| O=C(O)C1=CCCN(CCON=C(c2ccccc2)c2ccccc2)C1 | 5.62 µM [rising, single point] | – |
| O=C(CSC1=NCCS1)Nc1ccnc2ccccc12 | 7.94 µM [rising, partial curve] | – |
| O=C(CN(C1CCCCC1)S(=O)(=O)c1ccc(F)cc1)Nc1ccc2c(c1)OCO2 | 35.5 µM [rising, single point] | 35.5 µM [rising, single point] |
| N#CCc1ccc(NC(=O)Nc2cccc(Cl)c2)cc1 | 22.4 µM [rising, single point] | 20 µM [rising, partial curve, poor fit] |
| CCOC(=O)N1CCC(NS(=O)(=O)c2cc(Br)cc3c2N(C(=O)CC)CC3)CC1 | 35.5 µM [rising, single point] | – |
| CCSc1nnc(NC(=O)CSc2nccn2-c2cccc(C)c2C)s1 | 11.2 µM [rising, partial curve] | 12.6 µM [rising, partial curve] |
| CCc1nnc(NC(=O)c2sc3nc4c(cc3c2N)CCCCCC4)s1 | 0.282 µM [rising, full curve] | – |
| COc1ccc2nc(NC(=O)[C@@H]3CCCN3C(=O)c3cccs3)sc2c1 | 35.5 µM [rising, single point] | 35.5 µM [rising, single point] |
| Cc1ccc(C(C[N+](=O)[O-])c2c(-c3ccccc3O)[nH][nH]c2=O)cc1 (stereo unspecified) | 35.5 µM [falling, single point] | 31.6 µM [falling, single point] |
| COCCNC(=O)C(C)OC(=O)C1=Cc2ccccc2OC1 (stereo unspecified) | – | 4.47 µM [rising, partial curve, poor fit] |
| CCCCNC(=O)C1CCC(CNS(=O)(=O)c2ccc(C)cc2)CC1 (stereo unspecified) | 20 µM [falling, partial curve, poor fit] | 20 µM [falling, single point] |
| O=C(COC(=O)C(Cc1c[nH]c2ccccc12)NC(=O)c1ccc(Cl)cc1)c1ccc(Cl)cc1 (stereo unspecified) | – | 28.2 µM [falling, partial curve, poor fit] |
| Cc1cc(C)c(NC(=O)CCn2c(=O)c3cccn3c3ccccc32)c(C)c1 | 0.178 µM [falling, full curve, poor fit] | 0.00501 µM [falling, full curve, poor fit] |
| COc1ccc(NC(=O)C(OC)c2ccccc2)cc1Cl (stereo unspecified) | 31.6 µM [rising, single point] | 10 µM [rising, single point] |

Reprinted at random: 2 records from the list.

| SMILES | AC50 [1] | AC50 [2] |
| --- | --- | --- |
| CCc1nnc(NC(=O)c2sc3nc4c(cc3c2N)CCCCCC4)s1 | 0.282 µM [rising, full curve] | – |
| O=C(CSC1=NCCS1)Nc1ccnc2ccccc12 | 7.94 µM [rising, partial curve] | – |
